Measurements published in the supplement of paper PMC10849652.
Some of the results follow.

Sequences of proteins named here, by UniProt entry; tags and fusion partners are left off. A change or cut given only in a name is not applied to a line headed by its entry.
UniProt Q9Y2K3: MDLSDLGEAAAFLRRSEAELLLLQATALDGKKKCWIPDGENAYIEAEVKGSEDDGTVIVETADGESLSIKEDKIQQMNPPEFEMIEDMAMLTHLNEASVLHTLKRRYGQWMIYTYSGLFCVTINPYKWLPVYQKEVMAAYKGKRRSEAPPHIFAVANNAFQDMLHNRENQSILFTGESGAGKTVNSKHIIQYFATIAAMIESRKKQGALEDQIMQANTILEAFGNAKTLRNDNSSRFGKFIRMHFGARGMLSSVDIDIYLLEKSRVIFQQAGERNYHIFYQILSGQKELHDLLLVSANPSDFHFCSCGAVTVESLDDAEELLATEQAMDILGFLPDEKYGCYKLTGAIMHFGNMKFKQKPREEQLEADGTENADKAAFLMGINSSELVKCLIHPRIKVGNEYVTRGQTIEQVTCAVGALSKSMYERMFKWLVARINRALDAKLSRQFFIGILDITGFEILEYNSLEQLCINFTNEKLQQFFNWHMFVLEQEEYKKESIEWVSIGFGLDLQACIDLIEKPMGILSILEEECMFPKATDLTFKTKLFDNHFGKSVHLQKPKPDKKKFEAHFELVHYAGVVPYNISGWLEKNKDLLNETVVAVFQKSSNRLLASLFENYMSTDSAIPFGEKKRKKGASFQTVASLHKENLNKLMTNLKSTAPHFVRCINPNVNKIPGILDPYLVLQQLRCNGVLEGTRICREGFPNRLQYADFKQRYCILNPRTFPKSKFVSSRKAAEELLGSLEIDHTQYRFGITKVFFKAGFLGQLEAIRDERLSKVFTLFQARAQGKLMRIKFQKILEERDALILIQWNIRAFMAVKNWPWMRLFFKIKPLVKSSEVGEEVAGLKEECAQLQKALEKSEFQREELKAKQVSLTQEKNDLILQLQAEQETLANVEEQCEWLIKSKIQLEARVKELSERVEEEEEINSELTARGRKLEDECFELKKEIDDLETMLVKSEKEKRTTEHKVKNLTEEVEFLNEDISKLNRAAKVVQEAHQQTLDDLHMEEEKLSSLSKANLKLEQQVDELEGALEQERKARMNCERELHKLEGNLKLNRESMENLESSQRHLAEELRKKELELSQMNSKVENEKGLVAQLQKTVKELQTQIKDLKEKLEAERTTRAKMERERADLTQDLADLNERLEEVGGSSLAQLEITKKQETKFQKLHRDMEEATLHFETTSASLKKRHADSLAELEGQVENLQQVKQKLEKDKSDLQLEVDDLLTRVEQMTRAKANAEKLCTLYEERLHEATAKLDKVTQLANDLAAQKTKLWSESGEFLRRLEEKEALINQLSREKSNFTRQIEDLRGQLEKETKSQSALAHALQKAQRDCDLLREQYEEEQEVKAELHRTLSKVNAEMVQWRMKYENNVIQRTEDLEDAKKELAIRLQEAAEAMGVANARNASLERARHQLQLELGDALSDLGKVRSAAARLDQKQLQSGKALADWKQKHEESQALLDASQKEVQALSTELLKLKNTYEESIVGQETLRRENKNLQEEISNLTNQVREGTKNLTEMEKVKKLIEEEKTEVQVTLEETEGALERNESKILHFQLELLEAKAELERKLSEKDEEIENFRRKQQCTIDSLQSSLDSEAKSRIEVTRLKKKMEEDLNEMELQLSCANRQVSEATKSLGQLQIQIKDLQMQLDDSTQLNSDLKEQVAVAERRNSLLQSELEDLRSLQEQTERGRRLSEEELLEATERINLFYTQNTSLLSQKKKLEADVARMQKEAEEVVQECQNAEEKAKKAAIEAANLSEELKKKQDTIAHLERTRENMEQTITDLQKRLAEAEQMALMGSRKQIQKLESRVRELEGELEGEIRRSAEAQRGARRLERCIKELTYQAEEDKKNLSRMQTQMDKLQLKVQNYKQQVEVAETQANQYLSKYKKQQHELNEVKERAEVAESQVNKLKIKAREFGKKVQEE
UniProt Q8TAX7: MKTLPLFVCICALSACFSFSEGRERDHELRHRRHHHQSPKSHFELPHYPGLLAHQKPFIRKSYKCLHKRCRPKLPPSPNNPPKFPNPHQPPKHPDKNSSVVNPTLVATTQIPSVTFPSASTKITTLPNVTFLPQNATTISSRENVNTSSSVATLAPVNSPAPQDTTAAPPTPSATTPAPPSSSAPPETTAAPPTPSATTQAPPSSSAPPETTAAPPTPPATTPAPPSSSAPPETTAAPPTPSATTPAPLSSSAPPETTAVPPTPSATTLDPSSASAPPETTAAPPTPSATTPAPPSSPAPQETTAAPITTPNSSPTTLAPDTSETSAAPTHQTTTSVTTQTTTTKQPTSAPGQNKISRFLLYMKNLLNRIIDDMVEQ
UniProt Q9P0P8: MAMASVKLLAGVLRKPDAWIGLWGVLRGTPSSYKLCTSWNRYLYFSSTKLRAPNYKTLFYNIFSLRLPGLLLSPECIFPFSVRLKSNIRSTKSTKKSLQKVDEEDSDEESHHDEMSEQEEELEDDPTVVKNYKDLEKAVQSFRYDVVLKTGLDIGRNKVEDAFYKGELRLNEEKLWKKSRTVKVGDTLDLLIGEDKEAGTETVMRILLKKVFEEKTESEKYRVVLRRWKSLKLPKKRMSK
UniProt Q13126: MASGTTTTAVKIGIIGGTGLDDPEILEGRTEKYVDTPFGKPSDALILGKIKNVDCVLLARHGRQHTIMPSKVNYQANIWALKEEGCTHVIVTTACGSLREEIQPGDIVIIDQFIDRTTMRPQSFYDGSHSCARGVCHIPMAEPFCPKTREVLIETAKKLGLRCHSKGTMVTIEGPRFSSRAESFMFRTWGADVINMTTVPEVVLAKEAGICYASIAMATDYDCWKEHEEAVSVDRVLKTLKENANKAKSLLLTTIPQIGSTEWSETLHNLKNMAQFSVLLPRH
UniProt Q9NYA4: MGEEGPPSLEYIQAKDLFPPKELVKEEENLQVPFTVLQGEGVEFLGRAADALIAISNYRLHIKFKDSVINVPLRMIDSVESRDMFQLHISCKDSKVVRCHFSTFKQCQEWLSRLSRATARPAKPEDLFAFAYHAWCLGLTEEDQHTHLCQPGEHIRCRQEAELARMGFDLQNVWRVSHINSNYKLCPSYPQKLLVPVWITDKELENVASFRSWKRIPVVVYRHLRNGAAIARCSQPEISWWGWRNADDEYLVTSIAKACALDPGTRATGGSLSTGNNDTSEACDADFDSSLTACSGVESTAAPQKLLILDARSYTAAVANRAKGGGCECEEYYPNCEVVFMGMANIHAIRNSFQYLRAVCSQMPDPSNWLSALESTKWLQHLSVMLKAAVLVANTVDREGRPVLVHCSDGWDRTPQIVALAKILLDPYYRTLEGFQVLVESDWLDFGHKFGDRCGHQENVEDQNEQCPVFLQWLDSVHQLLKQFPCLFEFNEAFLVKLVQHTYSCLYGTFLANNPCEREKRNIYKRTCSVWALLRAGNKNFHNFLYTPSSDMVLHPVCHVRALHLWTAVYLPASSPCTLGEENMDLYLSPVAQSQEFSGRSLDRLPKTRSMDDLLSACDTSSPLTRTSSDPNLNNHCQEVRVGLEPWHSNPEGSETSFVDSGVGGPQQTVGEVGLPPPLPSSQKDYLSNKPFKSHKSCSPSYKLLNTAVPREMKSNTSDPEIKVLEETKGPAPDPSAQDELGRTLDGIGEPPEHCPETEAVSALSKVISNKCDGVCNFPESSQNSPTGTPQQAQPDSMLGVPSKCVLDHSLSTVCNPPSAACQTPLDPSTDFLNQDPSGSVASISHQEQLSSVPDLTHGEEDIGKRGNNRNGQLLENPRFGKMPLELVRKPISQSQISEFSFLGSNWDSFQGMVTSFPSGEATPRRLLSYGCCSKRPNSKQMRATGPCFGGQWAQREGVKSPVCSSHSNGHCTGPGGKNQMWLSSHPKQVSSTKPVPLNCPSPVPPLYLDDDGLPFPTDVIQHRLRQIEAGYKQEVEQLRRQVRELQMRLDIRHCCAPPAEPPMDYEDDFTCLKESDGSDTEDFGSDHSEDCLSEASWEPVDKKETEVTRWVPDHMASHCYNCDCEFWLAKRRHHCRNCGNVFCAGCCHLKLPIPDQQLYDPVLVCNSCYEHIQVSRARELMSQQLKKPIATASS
UniProt Q9H903: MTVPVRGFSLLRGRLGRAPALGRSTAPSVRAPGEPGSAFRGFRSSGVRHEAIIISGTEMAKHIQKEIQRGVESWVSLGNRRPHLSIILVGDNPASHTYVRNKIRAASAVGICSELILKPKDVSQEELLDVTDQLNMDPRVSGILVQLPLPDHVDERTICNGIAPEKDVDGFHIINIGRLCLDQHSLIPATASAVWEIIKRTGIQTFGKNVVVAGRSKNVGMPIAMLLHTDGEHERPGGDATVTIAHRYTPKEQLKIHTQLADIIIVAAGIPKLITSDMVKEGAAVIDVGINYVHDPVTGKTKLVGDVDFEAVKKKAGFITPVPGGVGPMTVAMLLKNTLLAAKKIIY
UniProt P13533, whole entry, looked up: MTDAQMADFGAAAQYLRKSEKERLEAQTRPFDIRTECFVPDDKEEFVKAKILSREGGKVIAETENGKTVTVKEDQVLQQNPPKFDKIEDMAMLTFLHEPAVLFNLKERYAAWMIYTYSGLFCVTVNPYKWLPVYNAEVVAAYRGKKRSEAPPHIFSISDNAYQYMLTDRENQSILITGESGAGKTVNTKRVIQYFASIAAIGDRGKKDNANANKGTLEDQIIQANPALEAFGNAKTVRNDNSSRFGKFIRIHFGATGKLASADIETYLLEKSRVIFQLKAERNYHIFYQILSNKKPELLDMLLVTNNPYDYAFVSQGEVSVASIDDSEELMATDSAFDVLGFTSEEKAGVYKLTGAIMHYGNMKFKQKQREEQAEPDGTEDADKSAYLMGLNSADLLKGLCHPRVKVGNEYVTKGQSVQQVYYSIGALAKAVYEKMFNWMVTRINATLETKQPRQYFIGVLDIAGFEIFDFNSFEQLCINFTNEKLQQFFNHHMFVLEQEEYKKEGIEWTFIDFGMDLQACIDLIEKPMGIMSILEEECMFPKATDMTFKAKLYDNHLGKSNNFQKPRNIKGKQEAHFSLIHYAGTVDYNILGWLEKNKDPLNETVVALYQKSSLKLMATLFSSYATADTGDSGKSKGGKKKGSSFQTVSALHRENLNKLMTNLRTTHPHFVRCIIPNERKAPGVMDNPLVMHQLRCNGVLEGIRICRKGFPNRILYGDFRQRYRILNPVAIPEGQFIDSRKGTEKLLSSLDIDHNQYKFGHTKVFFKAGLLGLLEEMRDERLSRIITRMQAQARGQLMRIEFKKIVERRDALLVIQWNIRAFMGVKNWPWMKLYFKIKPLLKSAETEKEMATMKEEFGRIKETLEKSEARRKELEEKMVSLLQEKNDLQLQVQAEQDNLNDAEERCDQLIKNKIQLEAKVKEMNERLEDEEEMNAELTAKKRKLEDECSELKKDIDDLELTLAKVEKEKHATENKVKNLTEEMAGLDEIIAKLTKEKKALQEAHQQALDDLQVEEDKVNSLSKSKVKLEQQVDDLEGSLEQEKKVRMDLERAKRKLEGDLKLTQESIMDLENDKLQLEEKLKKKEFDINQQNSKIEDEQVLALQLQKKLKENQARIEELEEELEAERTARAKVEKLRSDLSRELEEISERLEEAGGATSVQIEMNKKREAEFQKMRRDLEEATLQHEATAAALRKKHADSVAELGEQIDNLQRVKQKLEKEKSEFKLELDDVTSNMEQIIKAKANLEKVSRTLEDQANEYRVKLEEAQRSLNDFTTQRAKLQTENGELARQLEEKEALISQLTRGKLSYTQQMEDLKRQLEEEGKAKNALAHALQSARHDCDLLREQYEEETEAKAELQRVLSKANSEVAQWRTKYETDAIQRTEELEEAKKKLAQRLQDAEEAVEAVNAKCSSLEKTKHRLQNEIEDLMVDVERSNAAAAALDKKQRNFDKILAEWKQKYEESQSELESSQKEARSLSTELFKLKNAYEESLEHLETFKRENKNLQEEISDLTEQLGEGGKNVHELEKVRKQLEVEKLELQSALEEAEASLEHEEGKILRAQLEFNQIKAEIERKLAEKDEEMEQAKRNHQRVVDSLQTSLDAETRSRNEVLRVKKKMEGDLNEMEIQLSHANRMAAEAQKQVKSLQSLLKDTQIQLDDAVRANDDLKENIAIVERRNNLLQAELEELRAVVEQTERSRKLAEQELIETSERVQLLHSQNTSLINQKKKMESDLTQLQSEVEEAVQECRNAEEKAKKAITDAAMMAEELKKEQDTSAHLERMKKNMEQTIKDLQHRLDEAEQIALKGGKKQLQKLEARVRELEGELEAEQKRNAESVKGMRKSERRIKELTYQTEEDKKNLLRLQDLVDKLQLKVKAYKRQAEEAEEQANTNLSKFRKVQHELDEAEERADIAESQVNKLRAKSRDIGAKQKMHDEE
UniProt P84157: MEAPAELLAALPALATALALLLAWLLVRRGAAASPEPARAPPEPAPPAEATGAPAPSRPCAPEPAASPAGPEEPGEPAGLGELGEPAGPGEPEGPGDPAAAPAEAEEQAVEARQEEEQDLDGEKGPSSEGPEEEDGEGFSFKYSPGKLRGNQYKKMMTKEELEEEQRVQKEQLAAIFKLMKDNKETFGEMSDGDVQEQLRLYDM

Key:
Assay in all cases: log2 fold change, soluble protein after heating vs DMSO (PISA); higher = thermal stabilisation; K562 cells, 10 uM, 30 min; active = over 0.2 and 3.5 SD of the protein, either way, in both replicates (recomputed)
[1] = compound: Cc1cccc(CC(=O)N2CCc3c2ccc(-c2cn(C)c4ncnc(N)c24)c3F)n1
How it was run: (§1)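 Thermal stability values are relative to control samples and come from duplicates. They are expressed as log2 fold changes. For measurement, K562 cells (2×10^6 cells/mL) received 10 μM compound for 30 min, and aliquots were heated for 3 min over 48°C-58°C, pooled, and extracted at 4°C in PBS with 0.5% NP-40. Soluble protein, the supernatant after 21,000xg for 90 min, was quantified by TMTpro 16plex LC-MS/MS with equalised channel sums.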

nilotinib = compound: Cc1cn(-c2cc(NC(=O)c3ccc(C)c(Nc4nccc(-c5cccnc5)n4)c3)cc(C(F)(F)F)c2)cn1 [nilotinib]
How it was run: as §1

[2] = compound: Cc1nc(Nc2n[nH]c3c2CN(C(=O)N[C@H](CN(C)C)c2ccccc2)C3(C)C)c2sccc2n1
How it was run: as §1

dasatinib = compound: Cc1nc(Nc2ncc(C(=O)Nc3c(C)cccc3Cl)s2)cc(N2CCN(CCO)CC2)n1 [dasatinib]
How it was run: as §1

[3] = compound: Cc1ncc(-c2ccnc(Nc3ccc(S(C)(=O)=O)cc3)n2)n1C(C)C
How it was run: as §1

[4] = compound: Cn1cc(-c2ccc3c(c2)CCN3C(=O)Cc2cccc(C(F)(F)F)c2)c2c(N)ncnc21
How it was run: as §1

[5] = compound: Cn1cc(-c2ccc3nnc(C(F)(F)c4ccc5ncccc5c4)n3n2)cn1
How it was run: as §1

tipifarnib = compound: Cn1cncc1[C@@](N)(c1ccc(Cl)cc1)c1ccc2c(c1)c(-c1cccc(Cl)c1)cc(=O)n2C [tipifarnib]
How it was run: as §1

mubritinib = compound: FC(F)(F)c1ccc(/C=C/c2nc(COc3ccc(CCCCn4ccnn4)cc3)co2)cc1 [mubritinib]
How it was run: as §1

[6] = compound: NC(=O)Nc1cc(-c2cccc(F)c2)sc1C(=O)N[C@H]1CCCNC1
How it was run: as §1

[7] = compound: NC(=O)c1cnc(N[C@@H]2CCCC[C@@H]2N)nc1Nc1cccc(-n2nccn2)c1
How it was run: as §1

[8] = compound: NC1(c2ccc(-c3nc4ccn5c(=O)[nH]nc5c4cc3-c3ccccc3)cc2)CCC1
How it was run: as §1

[9] = compound: NCC(=O)Nc1ccc(-n2nc(C(F)(F)F)cc2-c2ccc3c(ccc4ccccc43)c2)cc1
How it was run: as §1

entinostat = compound: Nc1ccccc1NC(=O)c1ccc(CNC(=O)OCc2cccnc2)cc1 [entinostat]
How it was run: as §1

vorinostat = compound: O=C(CCCCCCC(=O)Nc1ccccc1)NO [vorinostat]
How it was run: as §1

citarinostat = compound: O=C(CCCCCCNC(=O)c1cnc(N(c2ccccc2)c2ccccc2Cl)nc1)NO [citarinostat]
How it was run: as §1

silmitasertib = compound: O=C(O)c1ccc2c(c1)nc(Nc1cccc(Cl)c1)c1ccncc12 [silmitasertib]
How it was run: as §1

[10] = compound: O=C1NC(=O)C(c2cnc3ccccn23)=C1c1cn2c3c(cc(F)cc13)CN(C(=O)N1CCCCC1)CC2
How it was run: as §1

[11] = compound: c1cc(OCCN2CCCCC2)cc(-c2n[nH]c3ccc(-c4nnc[nH]4)cc23)c1
How it was run: as §1

bafetinib = compound: Cc1ccc(NC(=O)c2ccc(CN3CC[C@H](N(C)C)C3)c(C(F)(F)F)c2)cc1Nc1nccc(-c2cncnc2)n1 [bafetinib]
How it was run: as §1

Measured: log2 fold change

MTO1 isoform 6 (UniProt Q9Y2Z2)
inactive: [1] -0.01 | nilotinib -0.077 | [2] -0.057 | dasatinib -0.233 | [3] 0.033 | [4] -0.027 | [5] 0.085 | tipifarnib -0.098 | mubritinib -0.104 | [6] 0.081 | [7] 0.019 | [8] -0.248 | [9] -0.161 | entinostat 0.086 | vorinostat 0.056 | citarinostat 0.108 | silmitasertib -0.141 | [10] -0.112 | [11] -0.057

MYH15 (UniProt Q9Y2K3)
inactive: bafetinib -0.302 | nilotinib -0.002 | [2] 0.009 | [3] -0.373 | mubritinib 0.101 | [6] 0.152 | [8] -0.267 | entinostat -0.124 | citarinostat -0.003 | silmitasertib -0.001 | [11] 0.016

MUC7 (UniProt Q8TAX7)
inactive: bafetinib -0.061 | nilotinib -0.284 | [2] 0.019 | [3] 0.073 | [5] 0.181 | [6] 0.863 | entinostat -0.143 | [10] -1.92

MTRES1 (UniProt Q9P0P8)
inactive: tipifarnib 0.045 | mubritinib 0.022 | [7] 0.098 | [8] -0.125 | citarinostat -0.001 | silmitasertib 0.083 | [10] -0.059 | [11] -0.022

MRPS21 (UniProt P82921)
inactive: bafetinib 0.382 | nilotinib -0.347 | [2] 0.137 | dasatinib -0.284 | [3] -0.002 | [4] 0.036 | [5] 0.017 | tipifarnib -0.028 | mubritinib 0.277 | [6] -0.009 | [7] 0.137 | [8] -0.003 | [9] 0.095 | entinostat -0.004 | citarinostat 0.07 | silmitasertib -0.156 | [10] 0.024 | [11] -0.05

MTAP isoform 2 (UniProt Q13126)
inactive: bafetinib -0.225 | [1] -0.06 | dasatinib -0.214 | [6] 0.145 | entinostat -0.133 | vorinostat -0.032

MTMR10 (UniProt Q9NXD2)
inactive: bafetinib 0.122 | nilotinib -0.14 | [2] -0.031 | [3] 0.064 | tipifarnib -0.041 | mubritinib 0.025 | [6] -0.057 | [8] 0.033 | entinostat -0.034 | silmitasertib 0 | [10] -0.04

MYH2 (UniProt Q9UKX2)
inactive: bafetinib -0.153 | dasatinib -0.044 | mubritinib 0.005 | [8] -0.042 | citarinostat -1.25 | silmitasertib -0.053 | [11] -1.28

MT-CO1 (UniProt P00395)
inactive: bafetinib 0.006 | nilotinib 0.034 | [2] 0.02 | [3] -0.051 | [4] -0.108 | [5] -0.059 | tipifarnib -0.234 | mubritinib -0.017 | [6] -0.035 | [7] 0.21 | [8] -0.06 | [9] 0.016 | entinostat -0.025 | citarinostat 0.037 | silmitasertib -0.03 | [11] -0.031

MTMR4 (UniProt Q9NYA4)
inactive: [5] 0.069 | [6] -0.056 | entinostat -0.02

MTERF4 (UniProt Q7Z6M4)
inactive: nilotinib 0.017 | [2] 0.022 | dasatinib -0.158 | [3] -0.025 | [4] -0.179 | [5] 0.098 | tipifarnib -0.033 | mubritinib 0.051 | [6] -0.205 | [7] 0.081 | [8] -0.071 | entinostat -0.084 | silmitasertib -0.001 | [10] 0.215

MTHFD2L (UniProt Q9H903)
inactive: dasatinib 0.053 | [4] 0.108 | mubritinib -0.2 | [6] -0.086 | [8] -0.15 | [9] -0.043 | entinostat -0.052 | silmitasertib -0.112 | [10] -0.126

MTHFSD (UniProt Q2M296)
inactive: dasatinib 0.003 | [4] -0.138 | mubritinib -0.027 | [7] 0.035 | [8] -0.03 | silmitasertib 0.114

MYH6 (UniProt P13533)
inactive: [1] -0.001 | nilotinib 0.038 | [2] -0.081 | dasatinib -0.001 | [3] 0.008 | [4] -0.093 | tipifarnib -0.117 | mubritinib 0.063 | [8] 0.088 | vorinostat -0.088 | silmitasertib -0.054 | [10] -0.017

MYO9A isoform 4 (UniProt B2RTY4)
inactive: bafetinib 0.016 | [1] -0.049 | dasatinib -0.046 | [6] -0.194 | [7] -0.16 | [9] -0.054 | entinostat -0.055 | vorinostat -0.012 | [10] 0.307

MTERF3 (UniProt Q96E29)
inactive: bafetinib 0.149 | [1] -0.113 | dasatinib 0.013 | [5] 0.197 | mubritinib -0.224 | [6] 0.058 | [8] 0.112 | entinostat 0.077 | vorinostat 0.119 | silmitasertib 0.344

MYO1B (UniProt O43795)
inactive: [1] -0.161 | [9] -0.192 | vorinostat 0.063

MXRA7 isoform 3 (UniProt P84157)
inactive: [5] -0.078 | tipifarnib 0.011

MTFMT (UniProt Q96DP5)
inactive: tipifarnib -0.308 | [6] -0.463 | [9] 0.028 | entinostat -0.216 | citarinostat 0.038 | [10] 0.161 | [11] -0.07

Reprinted from the entries so far (two entries):
MTERF4 (UniProt Q7Z6M4)
inactive: nilotinib 0.017 | [2] 0.022 | dasatinib -0.158 | [3] -0.025 | [4] -0.179 | [5] 0.098 | tipifarnib -0.033 | mubritinib 0.051 | [6] -0.205 | [7] 0.081 | [8] -0.071 | entinostat -0.084 | silmitasertib -0.001 | [10] 0.215

MTHFD2L (UniProt Q9H903)
inactive: dasatinib 0.053 | [4] 0.108 | mubritinib -0.2 | [6] -0.086 | [8] -0.15 | [9] -0.043 | entinostat -0.052 | silmitasertib -0.112 | [10] -0.126
